Consider 1 variant from PMC8718266.

The chains are these.
B1: 3xFLAG-KLF2 wild-type [not stated] / FBW7 (endogenous, mESCs) [mouse (endogenous in mESCs)] (parent)
chain 1: MNQELLSVGSKRRRTGGSLRGNASSSQVDEGQMNRVVEEDPQQQARHQEEEHTARNGELVGANPRPGDQNDTQQGQVEENNNRFISVDEDSSGNQEEQEEDEEHAGEQEEEEEEEEEEEEMDQESDDFDPSDDSSREDEHTHNSNVTNCSSVSDLPAHQLSSPFYTKTTKMKRKLDHGSEVRSFSLGKKPCKVSDYTSTTGLVPCSATPTTFGDLRAANGQGQQRRRITSVQPPTGLQEWLKMFQSWSGPEKLLALDELIDSCEPTQVKHMMQVIEPQFQRDFISLLPKELALYVLSFLEPKDLLQAAQTCRYWRILAEDNLLWREKCKEEGIDEPLHIKRRKIIKPGFIHSPWKSAYIRQHRIDTNWRRGELKSPKVLKGHDDHVITCLQFCGNRIVSGSDDNTLKVWSAVTGKCLRTLVGHTGGVWSSQMRDNIIISGSTDRTLKVWNAETGECIHTLYGHTSTVRCMHLHEKRVVSGSRDATLRVWDIETGQCLHVLMGHVAAVRCVQYDGRRVVSGAYDFMVKVWDPETETCLHTLQGHTNRVYSLQFDGIHVVSGSLDTSIRVWDVETGNCIHTLTGHQSLTSGMELKDNILVSGNADSTVKIWDIKTGQCLQTLQGPSKHQSAVTCLQFNKNFVITSSDDGTVKLWDLKTGEFIRNLVTLESGGSGGVVWRIRASNTKLVCAVGSRNGTEETKLLVLDFDVDMK
chain 2: MALSEPILPSFATFASPCERGLQERWPRNEPEAGGTDEDLNNVLDFILSMGLDGLGAENPPEPPPQPPPPAFYYPEPGAPPPYSIPAASLGTELLRPDLDPPQGPALHGRFLLAPPGRLVKAEPPEVDGGGYGCAPGLAHGPRGLKLEGAPGATGACMRGPAGRPPPPPDTPPLSPDGPLRIPASGPRNPFPPPFGPGPSFGGPGPALHYGPPAPGAFGLFEDAAAAAAALGLAPPATRGLLTPPSSPLELLEAKPKRGRRSWPRKRAATHTCSYTNCGKTYTKSSHLKAHLRTHTGEKPYHCNWEGCGWKFARSDELTRHYRKHTGHRPFQCHLCDRAFSRSDHLALHMKRHM

The variants in the first assay derive from B1. Description: FLAG IP mass spectrometry (spectral counting). The settings on record: with FBW7 (endogenous, mESCs) [mouse (endogenous in mESCs)]; Klf2+/+ mESCs; parent: 1; read off a plot.
Turning to chain 2 T171A S175A T243A S247A, the ratio to parent is 9.6.

The same assay, now with this note: with FBW7 (endogenous, mESCs) [mouse (endogenous in mESCs)]; Klf2Δ/Δ mESCs; parent: 1; read off a plot.
On to chain 2 T171A S175A T243A S247A, for which the ratio to parent turned out to be 13.
